Each structure is given as a SMILES string. This is one part of the list. Shown are side measurements of this screen, not its main read-out; they come without a call. Compounds called inactive in the main read-out are mostly missing here. The note in brackets gives the kind of curve behind each potency; many fits are weak.

The term AC50 denotes the midpoint of the concentration-response curve, whichever way the signal moves.

The assay can be described thus: Cell signaling CRE-BLA (Fsk stim). Conditions: CHO CRE-bla reporter (cAMP response element driving beta-lactamase), forskolin EC10, beta-lactamase ratio; measured here: 460 nm blue channel. A digest of the protocol: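 Reporter-gene assay: CHO cells with beta-lactamase behind cAMP responsive elements, co-treated with compound and EC10 NKH 477 for 3 hours at 37 degrees Celsius. Activity came from the 460/530 nm CCF4 emission ratio.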
With `Cc1cc(N2CCOCC2)nc(NCc2ccccc2)n1`, the half-maximal activity concentration (AC50) was 0.794 µM [falling, full curve].
As for `CC1Cc2nc(SCC(=O)Nc3nccs3)n(Cc3ccccc3)c(=O)c2S1` (stereo not drawn), the concentration at half-maximal activity (AC50) is 12.6 µM [rising, partial curve].
The same measure for `CCCCS(=O)CC(O)COc1ccc(C(C)(C)C)cc1` (stereo not drawn): 0.00316 µM [falling, full curve].
In the case of `Nc1ccc(CN2CCN(c3ccc4ccccc4n3)CC2)cc1`, the half-maximal activity concentration (AC50) was 10 µM [falling, partial curve].
On to `CCOC(=O)Cn1cnc2c(C#N)c3n(c2c1=O)CCCCC3`, for which the AC50 is 15.8 µM [rising, single point].
The same measure for `COc1ccccc1CN1C(=O)CCC1(C)C(=O)NCc1cccnc1` (stereo not drawn): 0.251 µM [rising, full curve].
For the compound `Cc1cc(-n2nnc3ccccc32)nc2ccccc12`, the AC50 was 5.01 µM [rising, full curve, poor fit].
The same measure for `COc1cc(C2C(C#N)=C(N)Oc3cc(N(C)C)ccc32)cc2c1OCO2` (stereo not drawn): 1.26 µM [rising, partial curve]; for `O=C(c1cc2nc(-c3ccco3)cc(C(F)(F)F)n2n1)N1CCN(c2ccccn2)CC1`: 12.6 µM [rising, single point].
The same measure for `COC(=O)C(C)Sc1nc2c(c(=O)[nH]c(=O)n2C)n1CCC(C)C` (stereo not drawn): 10 µM [rising, single point].
Regarding `COc1ccc(Cl)cc1NC(=O)CN(C)C(C)C(=O)NCC1CCCCC1` (stereo not drawn), the AC50 was 3.16 µM [falling, single point].
Regarding `COc1cc(C)c2occ(/C(C)=N\O)c2c1`, the AC50 is 12.6 µM [rising, partial curve].
In the case of `CCOC(=O)c1c(C)n(OCc2ccccc2)c2ccc3nonc3c12`, the AC50 was 10 µM [rising, partial curve].
To `O=C(CSc1nc2ccccc2c(=O)[nH]1)Nc1ccc(S(=O)(=O)N2CCCC2)cc1` belongs 25.1 µM [rising, single point]; to `CN(C)c1nc(-c2ccc3c(c2)OCO3)nc2ccccc12`, 10 µM [rising, partial curve].
To `COc1ccc(CNc2nc(-c3cccnc3)nc3ccccc23)c(OC)c1` belongs 3.98 µM [rising, partial curve, poor fit].
With `Cc1ccc(C)c(S(=O)(=O)Nc2ccc(S(=O)(=O)Nc3onc(C)c3C)cc2)c1`, the AC50 is 12.6 µM [falling, single point].
Consider `CCC(C)[C@@H](NC(=O)OC(C)(C)C)c1nnc(S(=O)(=O)Cc2cccc(C)c2)o1` (stereo partly drawn), for which the AC50 was 5.01 µM [falling, full curve].
Consider `COC(=O)c1cc2c(s1)-c1ccccc1OC2`, for which the AC50 is 25.1 µM [rising, single point].
The same measure for `COc1ccccc1NC(=O)Cn1cnc2c(cnn2-c2ccc(C)c(C)c2)c1=O`: 15.8 µM [rising, partial curve]; for `COc1ccc(CCNC(=O)CN2CCCc3ccccc32)cc1OC`: 3.16 µM [falling, partial curve]; for `CCc1nnc(NC(=O)CSc2nnc(Cc3cccn3C)n2CCOC)s1`: 10 µM [rising, partial curve].
Turning to `CON(C)c1nc(OCCNC(=O)COc2ccc(Cl)cc2C)nc(N(C)C)n1`, the AC50 was 5.01 µM [rising, partial curve].
Turning to `COc1ccc(-c2ccc(=O)n(Cc3cc(=O)n4ccccc4n3)n2)cc1`, the half-maximal activity concentration (AC50) is 7.94 µM [rising, partial curve].
To `CCc1cc2c3c(c(=O)oc2cc1O)CCCC3` belongs 12.6 µM [rising, single point]; to `Cn1ncc(C#N)c1/N=C/N1CCCCC1`, 0.00316 µM [falling, full curve, poor fit]; to `CCOC(=O)CN(C(=O)CSc1nnc2c(n1)[nH]c1ccc(OC)cc12)c1ccc(F)cc1`, 7.94 µM [rising, partial curve].
The same measure for `COC(=O)c1ccc(OCC(=O)c2ccc(O)cc2O)cc1`: 7.94 µM [falling, partial curve]; for `c1cncc(-c2nc3ccccc3o2)c1`: 0.0251 µM [falling, full curve]; for `CCN(CC)CCOC(=O)C1(c2ccc([N+](=O)[O-])cc2)CCCC1`: 20 µM [falling, partial curve, poor fit].
The same measure for `Cc1cc(C)n(-c2nc(C)nc(NCc3ccccc3)n2)n1`: 10 µM [rising, partial curve].
`O=C1c2oc3ccccc3c(=O)c2C(c2cccc(F)c2)N1CCCO` (stereo not drawn): the half-maximal activity concentration (AC50) is 15.8 µM [falling, partial curve].
In the case of `O=C1[C@@H]2C(Cc3ccc(O)cc3)NC3(C(=O)Nc4ccc(F)cc43)[C@@H]2C(=O)N1c1ccc(F)cc1` (stereo partly drawn), the AC50 is 20 µM [falling, partial curve, poor fit].
Consider `COc1ccc(-c2nn(C)c(=O)c3ccccc23)cc1CNS(C)(=O)=O`, for which the AC50 was 25.1 µM [rising, single point].
To `CCCOC(=O)c1ccc(Oc2cn[nH]c2-c2ccc(OCC)cc2O)cc1` belongs 10 µM [falling, partial curve]; to `CCN(CC)c1ccc2cc(C(=O)Nc3ccc(-n4cnnn4)c(OC)c3)c(=O)oc2c1`, 12.6 µM [rising, partial curve].
In the case of `O=C(CN1CCN(c2ccccc2)CC1)N1CCN(c2ccccc2)CC1`, the AC50 was 10 µM [falling, partial curve].
Consider `Cc1cccc(N2CCN(c3cccc(C)c3)C2c2cccnc2)c1`, for which the half-maximal activity concentration (AC50) was 25.1 µM [falling, single point].
For the compound `COc1cc(-c2noc(-c3ccco3)n2)cc(OC)c1OC`, the concentration at half-maximal activity (AC50) was 10 µM [rising, partial curve].
As to `O=C1CCCN1CC(CN1CCOCC1)Sc1nc2ccccc2c(=O)n1-c1ccccc1` (stereo not drawn), the AC50 is 12.6 µM [rising, single point].
For `COCCn1c(=O)c(-c2cc(F)cc(F)c2)nc2cnc(Nc3cccc(OC)c3)nc21`, the AC50 is 1.58 µM [rising, full curve].
Consider `Cc1ccc(C)c2nc(N3CCCC3)c(C#N)cc12`, for which the half-maximal activity concentration (AC50) was 10 µM [rising, partial curve].
For `Cc1cc(NC(=O)c2c(F)c(F)c(F)c(F)c2F)no1`, the half-maximal activity concentration (AC50) is 25.1 µM [falling, single point].

The record behind these values is PubChem BioAssay AID662 (National Center for Advancing Translational Sciences (NCATS), 2007).
